Reference: the supplement of paper PMC11732987, “Enantioselective OTUD7B fragment discovery through chemoproteomics screening and high-throughput optimisation” (Communications Chemistry, 2025)
Some of the results follow. The data scatter; read single values as rough.

The chains behind the UniProt entries cited, without tags or fusion partners. Where a name states a change or a piece, a line headed by the entry shows the natural chain unless it says otherwise. Residues count along the entry.
UniProt Q9UG63: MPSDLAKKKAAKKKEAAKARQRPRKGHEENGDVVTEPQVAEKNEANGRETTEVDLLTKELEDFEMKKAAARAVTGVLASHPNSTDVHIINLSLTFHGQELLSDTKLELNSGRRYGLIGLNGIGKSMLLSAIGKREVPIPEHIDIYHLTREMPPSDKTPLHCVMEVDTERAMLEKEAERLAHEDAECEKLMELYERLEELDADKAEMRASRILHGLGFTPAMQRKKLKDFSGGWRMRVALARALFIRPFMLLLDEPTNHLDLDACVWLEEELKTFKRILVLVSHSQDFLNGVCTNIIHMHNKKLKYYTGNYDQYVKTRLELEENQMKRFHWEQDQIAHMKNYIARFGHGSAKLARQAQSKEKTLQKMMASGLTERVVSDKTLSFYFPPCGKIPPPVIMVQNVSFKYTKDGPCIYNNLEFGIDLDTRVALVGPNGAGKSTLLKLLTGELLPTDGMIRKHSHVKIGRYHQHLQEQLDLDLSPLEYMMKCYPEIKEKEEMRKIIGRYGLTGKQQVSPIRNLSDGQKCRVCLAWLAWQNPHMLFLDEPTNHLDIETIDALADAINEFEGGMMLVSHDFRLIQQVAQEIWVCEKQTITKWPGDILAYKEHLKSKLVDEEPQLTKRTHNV
UniProt Q9UKU7: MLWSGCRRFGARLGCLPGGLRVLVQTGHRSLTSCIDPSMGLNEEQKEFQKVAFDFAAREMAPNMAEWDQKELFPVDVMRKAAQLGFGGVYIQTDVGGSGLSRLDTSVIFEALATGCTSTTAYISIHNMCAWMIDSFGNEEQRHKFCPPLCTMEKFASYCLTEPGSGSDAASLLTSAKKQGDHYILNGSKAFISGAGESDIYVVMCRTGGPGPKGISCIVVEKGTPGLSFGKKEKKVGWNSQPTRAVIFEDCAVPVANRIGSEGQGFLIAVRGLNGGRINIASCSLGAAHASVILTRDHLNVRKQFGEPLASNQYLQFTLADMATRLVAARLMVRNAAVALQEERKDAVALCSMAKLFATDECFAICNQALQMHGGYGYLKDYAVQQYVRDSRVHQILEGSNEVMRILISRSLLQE
UniProt Q86V21, 4-24: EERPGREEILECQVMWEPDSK
UniProt Q8IZP0: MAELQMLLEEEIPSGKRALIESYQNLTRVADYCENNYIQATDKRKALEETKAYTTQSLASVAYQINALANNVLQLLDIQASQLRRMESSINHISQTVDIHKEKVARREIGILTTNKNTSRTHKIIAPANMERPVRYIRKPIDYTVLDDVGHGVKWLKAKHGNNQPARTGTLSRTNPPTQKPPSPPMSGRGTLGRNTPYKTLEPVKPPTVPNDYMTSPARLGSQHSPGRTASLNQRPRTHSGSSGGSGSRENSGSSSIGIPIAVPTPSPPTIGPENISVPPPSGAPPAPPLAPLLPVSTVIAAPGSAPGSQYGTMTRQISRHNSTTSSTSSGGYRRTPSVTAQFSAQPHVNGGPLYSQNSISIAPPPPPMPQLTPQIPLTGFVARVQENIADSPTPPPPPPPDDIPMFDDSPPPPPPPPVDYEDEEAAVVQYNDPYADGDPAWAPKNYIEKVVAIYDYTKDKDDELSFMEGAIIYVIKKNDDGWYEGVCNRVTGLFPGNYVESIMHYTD
UniProt Q15057: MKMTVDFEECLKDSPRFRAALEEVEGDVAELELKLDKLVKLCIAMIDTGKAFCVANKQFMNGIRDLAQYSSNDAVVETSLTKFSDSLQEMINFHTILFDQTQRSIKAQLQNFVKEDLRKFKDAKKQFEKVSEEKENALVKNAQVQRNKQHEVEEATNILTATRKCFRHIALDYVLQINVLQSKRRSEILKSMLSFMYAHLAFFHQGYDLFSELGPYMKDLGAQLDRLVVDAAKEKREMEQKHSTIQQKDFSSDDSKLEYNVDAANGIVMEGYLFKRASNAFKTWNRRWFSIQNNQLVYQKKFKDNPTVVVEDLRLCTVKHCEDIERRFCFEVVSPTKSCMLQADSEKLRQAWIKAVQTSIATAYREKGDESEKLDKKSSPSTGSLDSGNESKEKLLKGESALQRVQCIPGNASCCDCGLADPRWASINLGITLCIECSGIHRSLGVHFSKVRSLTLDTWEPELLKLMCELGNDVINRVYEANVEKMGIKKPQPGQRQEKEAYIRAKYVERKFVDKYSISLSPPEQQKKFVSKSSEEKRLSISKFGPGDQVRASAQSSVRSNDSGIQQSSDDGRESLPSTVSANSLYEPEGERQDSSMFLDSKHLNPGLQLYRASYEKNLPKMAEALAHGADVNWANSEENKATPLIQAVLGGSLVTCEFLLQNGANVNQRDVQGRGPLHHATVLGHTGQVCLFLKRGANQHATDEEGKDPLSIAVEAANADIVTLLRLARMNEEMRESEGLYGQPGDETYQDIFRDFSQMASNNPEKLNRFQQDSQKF
UniProt O15440: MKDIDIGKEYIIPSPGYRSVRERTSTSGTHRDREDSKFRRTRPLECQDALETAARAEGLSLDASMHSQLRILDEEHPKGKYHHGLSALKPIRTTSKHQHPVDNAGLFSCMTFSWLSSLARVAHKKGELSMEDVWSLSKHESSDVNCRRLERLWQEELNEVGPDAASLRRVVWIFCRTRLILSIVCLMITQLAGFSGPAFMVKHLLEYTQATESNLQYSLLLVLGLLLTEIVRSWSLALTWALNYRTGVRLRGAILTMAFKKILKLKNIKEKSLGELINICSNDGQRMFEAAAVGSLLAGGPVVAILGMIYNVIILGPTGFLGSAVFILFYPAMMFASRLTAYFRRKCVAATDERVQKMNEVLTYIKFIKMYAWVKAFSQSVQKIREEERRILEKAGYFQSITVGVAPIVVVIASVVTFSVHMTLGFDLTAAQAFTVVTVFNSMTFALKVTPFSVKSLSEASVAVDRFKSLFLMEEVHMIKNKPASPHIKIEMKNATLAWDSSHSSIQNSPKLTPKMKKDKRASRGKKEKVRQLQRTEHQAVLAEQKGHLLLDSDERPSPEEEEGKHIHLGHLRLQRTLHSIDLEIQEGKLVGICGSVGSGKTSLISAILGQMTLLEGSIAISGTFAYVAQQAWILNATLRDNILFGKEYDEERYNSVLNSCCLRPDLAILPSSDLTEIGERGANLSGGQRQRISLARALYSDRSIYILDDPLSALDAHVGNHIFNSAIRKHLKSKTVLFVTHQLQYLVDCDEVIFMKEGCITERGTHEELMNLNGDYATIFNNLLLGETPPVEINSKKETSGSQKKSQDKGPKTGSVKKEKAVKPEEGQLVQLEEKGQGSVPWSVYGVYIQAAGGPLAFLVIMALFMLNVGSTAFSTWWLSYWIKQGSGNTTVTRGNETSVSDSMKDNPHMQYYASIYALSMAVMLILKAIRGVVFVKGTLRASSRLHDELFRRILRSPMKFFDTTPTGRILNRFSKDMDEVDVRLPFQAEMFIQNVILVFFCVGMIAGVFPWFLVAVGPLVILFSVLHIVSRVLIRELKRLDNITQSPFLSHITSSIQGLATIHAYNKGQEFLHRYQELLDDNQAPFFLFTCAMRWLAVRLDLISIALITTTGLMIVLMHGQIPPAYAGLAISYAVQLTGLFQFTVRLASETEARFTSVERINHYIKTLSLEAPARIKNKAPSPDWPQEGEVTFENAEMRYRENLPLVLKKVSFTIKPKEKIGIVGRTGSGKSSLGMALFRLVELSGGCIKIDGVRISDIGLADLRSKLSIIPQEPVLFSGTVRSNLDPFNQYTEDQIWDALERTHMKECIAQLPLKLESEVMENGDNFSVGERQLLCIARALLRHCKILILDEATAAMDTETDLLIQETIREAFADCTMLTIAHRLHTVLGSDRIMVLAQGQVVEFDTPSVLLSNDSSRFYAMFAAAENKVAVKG
UniProt Q12979: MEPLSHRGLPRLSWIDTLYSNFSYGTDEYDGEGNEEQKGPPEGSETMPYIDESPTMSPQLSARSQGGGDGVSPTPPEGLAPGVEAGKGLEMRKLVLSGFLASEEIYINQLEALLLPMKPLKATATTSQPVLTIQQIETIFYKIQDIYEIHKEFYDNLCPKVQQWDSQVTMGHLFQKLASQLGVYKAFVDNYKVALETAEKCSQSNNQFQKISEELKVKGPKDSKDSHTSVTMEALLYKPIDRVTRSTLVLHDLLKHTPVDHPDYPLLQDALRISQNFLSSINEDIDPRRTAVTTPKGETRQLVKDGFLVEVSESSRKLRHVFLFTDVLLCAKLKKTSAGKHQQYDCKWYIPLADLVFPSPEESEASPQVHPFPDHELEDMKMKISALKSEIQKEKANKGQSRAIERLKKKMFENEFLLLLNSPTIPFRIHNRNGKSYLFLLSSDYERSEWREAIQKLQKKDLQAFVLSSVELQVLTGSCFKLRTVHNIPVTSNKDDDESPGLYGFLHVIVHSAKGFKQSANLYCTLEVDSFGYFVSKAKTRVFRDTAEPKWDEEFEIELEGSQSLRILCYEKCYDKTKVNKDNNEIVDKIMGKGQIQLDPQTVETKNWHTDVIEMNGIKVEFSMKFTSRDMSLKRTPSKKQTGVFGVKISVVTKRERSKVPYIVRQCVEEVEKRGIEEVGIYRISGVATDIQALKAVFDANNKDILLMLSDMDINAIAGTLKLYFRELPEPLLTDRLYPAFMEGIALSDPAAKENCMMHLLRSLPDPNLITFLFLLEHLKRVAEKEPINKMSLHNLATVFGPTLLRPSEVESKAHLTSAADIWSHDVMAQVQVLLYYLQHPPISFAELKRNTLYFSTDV
UniProt Q8WTS1: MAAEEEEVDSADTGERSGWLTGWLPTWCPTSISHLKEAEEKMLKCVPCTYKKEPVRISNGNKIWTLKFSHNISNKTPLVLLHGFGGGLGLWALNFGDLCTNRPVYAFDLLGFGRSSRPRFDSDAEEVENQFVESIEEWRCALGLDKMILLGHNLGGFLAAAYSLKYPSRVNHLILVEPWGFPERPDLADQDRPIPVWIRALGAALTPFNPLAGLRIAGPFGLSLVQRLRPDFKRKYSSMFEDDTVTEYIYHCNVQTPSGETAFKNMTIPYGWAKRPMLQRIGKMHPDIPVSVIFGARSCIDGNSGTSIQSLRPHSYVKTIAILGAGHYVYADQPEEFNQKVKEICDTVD
UniProt Q9NRG9: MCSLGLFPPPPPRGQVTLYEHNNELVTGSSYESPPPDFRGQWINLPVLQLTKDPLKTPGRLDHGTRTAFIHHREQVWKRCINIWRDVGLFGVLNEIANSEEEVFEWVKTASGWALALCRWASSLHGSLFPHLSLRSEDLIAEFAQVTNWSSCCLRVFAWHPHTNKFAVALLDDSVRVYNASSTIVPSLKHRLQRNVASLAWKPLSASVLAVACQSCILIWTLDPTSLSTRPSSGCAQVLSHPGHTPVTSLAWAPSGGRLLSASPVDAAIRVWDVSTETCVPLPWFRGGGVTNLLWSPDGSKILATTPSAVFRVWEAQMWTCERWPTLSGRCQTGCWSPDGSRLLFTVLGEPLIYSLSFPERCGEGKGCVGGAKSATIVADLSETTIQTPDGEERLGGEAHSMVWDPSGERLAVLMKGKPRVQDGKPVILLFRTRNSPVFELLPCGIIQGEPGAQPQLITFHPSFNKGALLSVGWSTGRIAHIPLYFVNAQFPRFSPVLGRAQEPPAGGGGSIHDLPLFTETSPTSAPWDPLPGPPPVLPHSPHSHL
UniProt Q13685: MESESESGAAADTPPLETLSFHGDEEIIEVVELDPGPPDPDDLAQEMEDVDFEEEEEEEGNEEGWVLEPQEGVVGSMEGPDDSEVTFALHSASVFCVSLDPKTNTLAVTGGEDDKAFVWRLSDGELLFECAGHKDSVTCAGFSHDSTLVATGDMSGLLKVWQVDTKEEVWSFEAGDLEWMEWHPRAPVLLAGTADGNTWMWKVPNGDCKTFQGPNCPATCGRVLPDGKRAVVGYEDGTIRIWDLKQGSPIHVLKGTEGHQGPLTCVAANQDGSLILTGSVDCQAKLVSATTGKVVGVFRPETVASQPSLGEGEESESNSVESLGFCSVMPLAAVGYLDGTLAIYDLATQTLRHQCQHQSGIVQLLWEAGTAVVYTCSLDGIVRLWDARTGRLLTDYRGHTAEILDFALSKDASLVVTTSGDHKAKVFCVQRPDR
UniProt Q9NUJ1: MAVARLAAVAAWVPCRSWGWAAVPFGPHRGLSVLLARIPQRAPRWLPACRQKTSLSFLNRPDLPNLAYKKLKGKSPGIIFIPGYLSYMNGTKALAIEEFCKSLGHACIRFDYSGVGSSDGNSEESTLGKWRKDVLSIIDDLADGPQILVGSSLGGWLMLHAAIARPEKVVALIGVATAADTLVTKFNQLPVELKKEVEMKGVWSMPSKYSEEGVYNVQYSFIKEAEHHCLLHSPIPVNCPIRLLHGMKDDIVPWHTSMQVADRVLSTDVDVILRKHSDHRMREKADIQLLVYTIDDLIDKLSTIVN

Compound: ClCC(=O)N[C@H]1CCCc2ccccc12
Assay: log2 mean competition ratio of IA-DTB cysteine labelling (DMSO/compound) (log2 ratio); higher = stronger cysteine engagement by compound
Conditions: 50 µM; treatment time: 4 h; cell line lysate: HEK293T
Protocol: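 IA-DTB competitive cysteine chemoproteomics in HEK293T RIPA lysate. Lysates were treated with compound 29 or 30 at 50 or 200 µM for 4 h, then IA-DTB (500 µM, 1 h), trypsin-digested, NeutrAvidin-enriched and analysed by diaPASEF. Competition ratio = intensity DMSO / intensity compound (n=4 treated, n=64 DMSO); binding: mean log2 CR ≥ 1 and p ≤ 0.05 plus QC filters. Target is the cysteine site.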

Row | Target | log2 mean competition ratio
1 | ABCC1 C730 (UniProt P33527) | -0.00046
2 | AARS1 C671 (UniProt H3BPK7) | -0.416
3 | ABCF2 C186 (UniProt Q9UG63) | -0.0992
4 | ACAD8 C351 (UniProt Q9UKU7) | -0.377
5 | AASDH C736 (UniProt Q4L235) | 0.0549
6 | AACS C15 (UniProt Q86V21) | -0.128
7 | ABI1 C33 (UniProt Q8IZP0) | -0.644
8 | ACAP2 C329 (UniProt Q15057) | -0.417
9 | ABCC5 C347 (UniProt O15440) | -0.0538
10 | ABCC5 C760 (UniProt O15440) | -0.154
11 | ABR C201 (UniProt Q12979) | 0.558
12 | AAK1 C87 | -0.367
13 | ACAP2 C10 (UniProt Q15057) | -0.482
14 | ABHD5 C140 (UniProt Q8WTS1) | -0.0333
15 | AAAS C368 (UniProt Q9NRG9) | -0.00177
16 | ABL1 C369 (UniProt P00519) | -0.254
17 | ABCC5 C146 (UniProt O15440) | -0.0264
18 | ABR C346 (UniProt Q12979) | 0.0313
19 | AAMP C208 (UniProt Q13685) | -0.173
20 | ABHD10 C100 (UniProt Q9NUJ1) | -0.288

Same assay, conditions: 200 µM; treatment time: 4 h; cell line lysate: HEK293T

Row | Target | log2 mean competition ratio
21 | ABCC1 C730 (UniProt P33527) | -0.185
22 | AARS1 C671 (UniProt H3BPK7) | -0.459
23 | ABCF2 C186 (UniProt Q9UG63) | 0.0205
24 | ACAD8 C351 (UniProt Q9UKU7) | -0.143
25 | AASDH C736 (UniProt Q4L235) | -0.11
26 | AACS C15 (UniProt Q86V21) | -0.125
27 | ABI1 C33 (UniProt Q8IZP0) | -0.0688
28 | ACAP2 C329 (UniProt Q15057) | 0.311
29 | ABCC5 C347 (UniProt O15440) | 0.216
30 | ABCC5 C760 (UniProt O15440) | 0.089
31 | ABR C201 (UniProt Q12979) | -0.0574
32 | AAK1 C87 | -0.111
33 | ACAP2 C10 (UniProt Q15057) | 0.636
34 | ABHD5 C140 (UniProt Q8WTS1) | 0.311
35 | AAAS C368 (UniProt Q9NRG9) | 0.0226
36 | ABL1 C369 (UniProt P00519) | -0.00328
37 | ABCC5 C146 (UniProt O15440) | 0.769
38 | ABR C346 (UniProt Q12979) | -0.0781
39 | AAMP C208 (UniProt Q13685) | 0.374
40 | ABHD10 C100 (UniProt Q9NUJ1) | -0.168
